Measured values: publication PMC12194085
Results are given in words; binding and its absence hold for the method and conditions named. Binding seen in cells or lysates may run through a third protein. A yes stands for co-enrichment or nearness to the bait. Other partners may have been found.

Protein sequences, listed by entry. Tags and fused reporters are not part of them. Lines headed by an entry give the natural chain unless they say otherwise; changes in a name come on top.
UniProt A0A384K7V0: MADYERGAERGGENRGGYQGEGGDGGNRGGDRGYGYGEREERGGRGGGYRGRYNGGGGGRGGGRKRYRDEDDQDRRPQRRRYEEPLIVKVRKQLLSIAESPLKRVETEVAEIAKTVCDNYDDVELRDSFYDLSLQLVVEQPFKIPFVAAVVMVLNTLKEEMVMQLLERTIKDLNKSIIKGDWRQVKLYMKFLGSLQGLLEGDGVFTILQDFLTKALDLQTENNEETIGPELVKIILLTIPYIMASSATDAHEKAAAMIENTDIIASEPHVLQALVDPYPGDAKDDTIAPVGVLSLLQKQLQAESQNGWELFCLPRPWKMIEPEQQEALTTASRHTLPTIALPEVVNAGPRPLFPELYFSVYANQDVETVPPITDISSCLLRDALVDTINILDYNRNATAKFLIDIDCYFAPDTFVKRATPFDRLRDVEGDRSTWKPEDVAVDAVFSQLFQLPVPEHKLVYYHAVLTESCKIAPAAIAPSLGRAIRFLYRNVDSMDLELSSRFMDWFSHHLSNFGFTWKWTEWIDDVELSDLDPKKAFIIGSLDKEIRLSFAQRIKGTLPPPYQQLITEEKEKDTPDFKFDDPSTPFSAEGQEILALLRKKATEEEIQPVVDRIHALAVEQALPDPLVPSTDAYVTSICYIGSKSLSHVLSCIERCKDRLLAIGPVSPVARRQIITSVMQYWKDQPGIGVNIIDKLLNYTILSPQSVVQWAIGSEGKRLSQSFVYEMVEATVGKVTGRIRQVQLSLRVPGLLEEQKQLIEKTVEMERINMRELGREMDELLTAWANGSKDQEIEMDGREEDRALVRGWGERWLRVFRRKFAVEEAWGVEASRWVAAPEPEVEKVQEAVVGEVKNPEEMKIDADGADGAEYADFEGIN

Biological target: BcCbp20::GFP (Botrytis cinerea)
Assay: affinity purification with mass spectrometry; total proteins of BcCbp20::GFP:B05.10 mycelia on GFP-Trap magnetic beads, 4 °C overnight, washed with 20 mM Tris-HCl, 500 mM NaCl, pH 7.5; LC-MS/MS; WT strain as control

binding: binds
Substance: BcCbp80 (from UniProt A0A384K7V0)
